# Test results as given in the supplement of paper PMC9135407.
# Values joined by “and” are separate entries in the source; they are usually repeats but may differ in a detail not shown here. Equal values may be shown once. Where a name gives a salt, the structure may show the parent alone. ± gives the standard deviation of the averaged measurements. Some of the results follow. Baselines shift from plate to plate; read single values as rough.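 Assay uses culture-activated primary human stellate myofibroblasts; lipid droplet recovery indicates inactivation. Measured: proportion of Hoechst-counted cells over a plate-specific Bodipy cutoff, duplicate wells, DMSO and nortriptyline as per-plate negative and positive controls. A hit scores, control-normalized, above the plate's top-tenth-percentile nortriptyline wells or ranks among its three best wells. Final well concentrations not reported.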
# Test system: primary human hepatic stellate cells (donor 1)
# Assay: percent Bodipy-positive cells; higher = more lipid droplet accumulation
# Conditions: 48 h
# [1] = library stock concentration: 10 mM
# [2] = library stock concentration: 3.33 mM
# [3] = library stock concentration: 1 mM
compound,measurement,setting,value
CN1C2CCC1CC(OC(=O)c1cc(Cl)cc(Cl)c1)C2 (stereo not given),percent Bodipy-positive cells,[1],65 ± 4%
CO[C@H]1CC=C2CCN3CCC4=C(CC(=O)OC4)[C@]23C1 [Dihydro-beta-erythroidine hydrobromide],percent Bodipy-positive cells,[1],35.5 ± 8.3%
C[C@]12CCC(=O)C=C1CC[C@@H]1[C@@H]2C(=O)C[C@]2(C)C(=O)CC[C@@H]12 [Adrenosterone],percent Bodipy-positive cells,,13 ± 7.6%
C[N+]1(C)CCOC(O)(c2ccc(-c3ccc(C4(O)C[N+](C)(C)CCO4)cc3)cc2)C1 (stereo not given) [Hemicholinium bromide],percent Bodipy-positive cells,,33.2 ± 3.3%
C[N+]1(C)CCOC(O)(c2ccc(-c3ccc(C4(O)C[N+](C)(C)CCO4)cc3)cc2)C1 (stereo not given) [Hemicholinium-3],percent Bodipy-positive cells,[1],51.9 ± 27%
COc1ccc(-n2nc(C(F)(F)F)cc2-c2ccc(Cl)cc2)cc1,percent Bodipy-positive cells,[1],5.95 ± 1.3%
Nc1ccncc1 [4-Aminopyridine],percent Bodipy-positive cells,library stock concentration: 53.1 mM,20.8 ± 16%
Nc1ccncc1 [Fampridine],percent Bodipy-positive cells,library stock concentration: 21.3 mM,23.2 ± 1%
CN(C)Cc1c[nH]c2ccccc12 [Gramine],percent Bodipy-positive cells,,39.3 ± 12%
same,percent Bodipy-positive cells,[2],9.19 ± 1.7%
same,percent Bodipy-positive cells,[1],60.5 ± 9.3%
C[C@@H]1O[C@@H](O[C@H]2C[C@@H](O)[C@]3(CO)C4C(CC[C@]3(O)C2)[C@@]2(O)CC[C@H](C3=CC(=O)OC3)[C@@]2(C)C[C@H]4O)[C@H](O)[C@H](O)[C@H]1O (stereo not given in full) [Ouabain],percent Bodipy-positive cells,[1],94.44 ± 0.49%
CCS(=O)(=O)Nc1cccc(C(=C2CCCCC2)c2cnc[nH]2)c1,percent Bodipy-positive cells,[1],45.1 ± 3.7%
C[C@]12CC[C@H]3[C@@H](CC[C@]4(O)C[C@@H](O)CC[C@]34C=O)[C@@]1(O)CC[C@@H]2C1=CC(=O)OC1 [Strophanthidin],percent Bodipy-positive cells,,68 ± 6%
O=Cc1cn(Cc2ccc(Cl)cc2)c2ccccc12 [Oncrasin 1],percent Bodipy-positive cells,[1],14.3 ± 5.8%
NCC(CS(=O)(=O)O)c1ccc(Cl)cc1 (stereo not given) [Saclofen],percent Bodipy-positive cells,[1],7.81 ± 1.5%
CC[C@@]1(O)C[C@H](O)c2c(cc3c(c2O)C(=O)c2c(O)ccc(O)c2C3=O)[C@H]1C(=O)OC [Rutilantinone],percent Bodipy-positive cells,[1],34.9 ± 4.1%
O=C(O)CCCc1ccc(N(CCCl)CCCl)cc1 [Chlorambucil],percent Bodipy-positive cells,,8.86 ± 0.41%
same,percent Bodipy-positive cells,library stock concentration: 6.6 mM,13.4% and 2.09%
same,percent Bodipy-positive cells,[1],10.1 ± 3.5%
O=C(O)CCCc1ccc(N(CCCl)CCCl)cc1 [Chloroambucil],percent Bodipy-positive cells,[2],8.52 ± 3.2%
same,percent Bodipy-positive cells,[1],29 ± 5.2%
O=C(O)CCCc1ccc(N(CCCl)CCCl)cc1,percent Bodipy-positive cells,[1],38.4 ± 7%
NCC(O)c1cc(O)c(O)cc1F (stereo not given) [6-Fluoronorepinephrine hydrochloride],percent Bodipy-positive cells,[1],46.6 ± 15%
CC[C@@H](C(N)=O)N1CCCC1=O [Levetiracetam],percent Bodipy-positive cells,[2],18.8 ± 1.1%
same,percent Bodipy-positive cells,[1],9.84% and 26.9%
same,percent Bodipy-positive cells,library stock concentration: 11.8 mM,9.79 ± 1.8%
CCCCC/C=C\C/C=C\C/C=C\C/C=C\CCCC(=O)Nc1ccc2c(C)cc(=O)oc2c1 [AMC Arachidonoyl Amide],percent Bodipy-positive cells,[3],12.76 ± 0.02%
C[C@@H]1O[C@@H](O[C@H]2C[C@@H](O)[C@]3(CO)[C@@H]4C(CC[C@]3(O)C2)[C@@]2(O)CC[C@H](C3COC(=O)C3)[C@@]2(C)C[C@H]4O)[C@H](O)[C@H](O)[C@H]1O (stereo not given in full) [Dihydroouabain],percent Bodipy-positive cells,[1],96.5 ± 1.3%
O=C(O[C@H]1C[C@H]2CC[C@@H](C1)[N+]21CCCC1)C(O)(c1ccccc1)c1ccccc1 [Trospium chloride],percent Bodipy-positive cells,[2],7.87 ± 2.2%
same,percent Bodipy-positive cells,[1],15.3 ± 6.6%
Cc1ncc(CN2CC=C(c3ccccc3)CC2)c(N)n1,percent Bodipy-positive cells,[1],7.78 ± 0.28%
Cc1[nH]c2ccc(O)cc2c1CCN [2-Methyl-5-hydroxytryptamine hydrochloride],percent Bodipy-positive cells,[1],6.35 ± 0.085%
Cc1[nH]c2ccc(O)cc2c1CCN [2-Methyl-5-hydroxytryptamine maleate],percent Bodipy-positive cells,[1],52 ± 8.7%
CCCCCCCCCCCCCC(=O)O[C@@H]1[C@@H](C)[C@@]2(O)[C@@H](C=C(CO)C[C@]3(O)C(=O)C(C)=C[C@@H]23)[C@@H]2C(C)(C)[C@]12OC(C)=O [Phorbol 12-myristate 13-acetate],percent Bodipy-positive cells,[1],20 ± 2.8%
O=C1/C(=C/c2ccccc2)C[C@@]2(O)[C@H]3Cc4ccc(O)c5c4[C@@]2(CCN3CC2CC2)[C@H]1O5 [BNTX maleate salt hydrate],percent Bodipy-positive cells,[1],100%
COc1ccc(C(=O)N2CCCC2=O)cc1 [Aniracetam],percent Bodipy-positive cells,[2],24 ± 3.6%
same,percent Bodipy-positive cells,library stock concentration: 9.1 mM,14.4% and 1.96%
CN(C)C(=O)C(CCN1CCC(O)(c2ccc(Cl)cc2)CC1)(c1ccccc1)c1ccccc1.Cl [Loperamide hydrochloride],percent Bodipy-positive cells,[1],98.03 ± 0.6%
CN1CCC(c2ccc(F)cc2)C(COc2ccc3c(c2)OCO3)C1 (stereo not given),percent Bodipy-positive cells,library stock concentration: 9.7 mM,76.5 ± 3%
O[C@H]1[C@H]2[C@H](O)CCCN2C[C@H]1O [swainsonine],percent Bodipy-positive cells,library stock concentration: 28.9 mM,12.7 ± 0.49%
CCCCCCCCCCCCCCCCOC[C@H](COP(=O)([O-])OCC[N+](C)(C)C)OC(C)=O,percent Bodipy-positive cells,[3],12.8% and 11%
CCCC(C)C1(CC)C(=O)NC(=S)NC1=O (stereo not given) [Thiopental sodium],percent Bodipy-positive cells,library stock concentration: 7.6 mM,6.9 ± 2.2%
COc1cc([C@@H]2c3cc4c(cc3[C@H](O)[C@H]3COC(=O)[C@@H]23)OCO4)cc(OC)c1OC [Picropodophyllotoxin],percent Bodipy-positive cells,[1],67.9 ± 2.3%
CC(N)Cc1c[nH]c2ccc(OCc3cccs3)cc12 (stereo not given),percent Bodipy-positive cells,[3],36.8 ± 6.9%

# Part of the list above, reformatted:
compound	measurement	setting	value
CCCCC/C=C\C/C=C\C/C=C\C/C=C\CCCC(=O)Nc1ccc2c(C)cc(=O)oc2c1 [AMC Arachidonoyl Amide]	percent Bodipy-positive cells	[3]	12.76 ± 0.02%
C[C@@H]1O[C@@H](O[C@H]2C[C@@H](O)[C@]3(CO)[C@@H]4C(CC[C@]3(O)C2)[C@@]2(O)CC[C@H](C3COC(=O)C3)[C@@]2(C)C[C@H]4O)[C@H](O)[C@H](O)[C@H]1O (stereo not given in full) [Dihydroouabain]	percent Bodipy-positive cells	[1]	96.5 ± 1.3%
O=C(O[C@H]1C[C@H]2CC[C@@H](C1)[N+]21CCCC1)C(O)(c1ccccc1)c1ccccc1 [Trospium chloride]	percent Bodipy-positive cells	[2]	7.87 ± 2.2%
same	percent Bodipy-positive cells	[1]	15.3 ± 6.6%
Cc1ncc(CN2CC=C(c3ccccc3)CC2)c(N)n1	percent Bodipy-positive cells	[1]	7.78 ± 0.28%
Cc1[nH]c2ccc(O)cc2c1CCN [2-Methyl-5-hydroxytryptamine hydrochloride]	percent Bodipy-positive cells	[1]	6.35 ± 0.085%
Cc1[nH]c2ccc(O)cc2c1CCN [2-Methyl-5-hydroxytryptamine maleate]	percent Bodipy-positive cells	[1]	52 ± 8.7%
CCCCCCCCCCCCCC(=O)O[C@@H]1[C@@H](C)[C@@]2(O)[C@@H](C=C(CO)C[C@]3(O)C(=O)C(C)=C[C@@H]23)[C@@H]2C(C)(C)[C@]12OC(C)=O [Phorbol 12-myristate 13-acetate]	percent Bodipy-positive cells	[1]	20 ± 2.8%
O=C1/C(=C/c2ccccc2)C[C@@]2(O)[C@H]3Cc4ccc(O)c5c4[C@@]2(CCN3CC2CC2)[C@H]1O5 [BNTX maleate salt hydrate]	percent Bodipy-positive cells	[1]	100%
COc1ccc(C(=O)N2CCCC2=O)cc1 [Aniracetam]	percent Bodipy-positive cells	[2]	24 ± 3.6%
same	percent Bodipy-positive cells	library stock concentration: 9.1 mM	14.4% and 1.96%
CN(C)C(=O)C(CCN1CCC(O)(c2ccc(Cl)cc2)CC1)(c1ccccc1)c1ccccc1.Cl [Loperamide hydrochloride]	percent Bodipy-positive cells	[1]	98.03 ± 0.6%
